Assay results: article PMC10512269

Amino acid sequences for entries named in this document (tags omitted). A change or cut given only in a name is not applied to a line headed by its entry.
UniProt Q4WLV8: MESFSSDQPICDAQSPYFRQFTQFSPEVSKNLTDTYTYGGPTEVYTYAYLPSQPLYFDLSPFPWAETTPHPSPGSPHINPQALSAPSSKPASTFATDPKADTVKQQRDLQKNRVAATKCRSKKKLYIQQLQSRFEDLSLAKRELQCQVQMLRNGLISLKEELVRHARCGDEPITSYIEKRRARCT
UniProt Q4WR67: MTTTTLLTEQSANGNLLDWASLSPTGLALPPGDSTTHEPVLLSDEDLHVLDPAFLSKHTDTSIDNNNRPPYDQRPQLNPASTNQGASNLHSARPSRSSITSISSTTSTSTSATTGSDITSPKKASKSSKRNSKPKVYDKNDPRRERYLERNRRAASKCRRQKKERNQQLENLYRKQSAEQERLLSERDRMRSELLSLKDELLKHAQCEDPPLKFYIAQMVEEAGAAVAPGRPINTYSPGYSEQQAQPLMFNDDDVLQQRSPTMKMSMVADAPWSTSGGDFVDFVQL

How the values were obtained:
Test in all cases: co-IP; GFP-Trap resin with protein extracts of A. fumigatus mycelia (grown 16 h in liquid YG; untreated, 1.2 M sorbitol 10 min, or Congo Red 300 ug/ml 10 min); 4 h at 4°C, washed three times in B250 buffer; Western blot with anti-GFP and anti-HA
[1] = target: T1, AtfA:GFP (Aspergillus fumigatus) (UniProt Q4WY05)
T1 sequence: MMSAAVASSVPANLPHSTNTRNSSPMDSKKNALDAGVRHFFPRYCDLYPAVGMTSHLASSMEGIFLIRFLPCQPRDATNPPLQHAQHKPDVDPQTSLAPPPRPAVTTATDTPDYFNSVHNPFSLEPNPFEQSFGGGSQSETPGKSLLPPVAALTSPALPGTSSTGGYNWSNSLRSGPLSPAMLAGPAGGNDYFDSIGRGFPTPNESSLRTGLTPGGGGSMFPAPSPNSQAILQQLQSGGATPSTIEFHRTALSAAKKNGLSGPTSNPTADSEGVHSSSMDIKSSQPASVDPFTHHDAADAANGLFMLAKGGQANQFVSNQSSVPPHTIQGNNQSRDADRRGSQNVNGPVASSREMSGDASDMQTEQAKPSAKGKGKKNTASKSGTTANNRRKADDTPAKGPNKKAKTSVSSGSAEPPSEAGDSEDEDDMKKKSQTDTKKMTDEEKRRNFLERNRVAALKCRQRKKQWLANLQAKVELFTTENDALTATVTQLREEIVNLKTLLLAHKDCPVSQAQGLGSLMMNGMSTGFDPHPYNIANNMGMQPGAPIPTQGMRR

[2] = target: T2, AtfB:GFP (Aspergillus fumigatus) (UniProt Q4WVQ7)
T2 sequence: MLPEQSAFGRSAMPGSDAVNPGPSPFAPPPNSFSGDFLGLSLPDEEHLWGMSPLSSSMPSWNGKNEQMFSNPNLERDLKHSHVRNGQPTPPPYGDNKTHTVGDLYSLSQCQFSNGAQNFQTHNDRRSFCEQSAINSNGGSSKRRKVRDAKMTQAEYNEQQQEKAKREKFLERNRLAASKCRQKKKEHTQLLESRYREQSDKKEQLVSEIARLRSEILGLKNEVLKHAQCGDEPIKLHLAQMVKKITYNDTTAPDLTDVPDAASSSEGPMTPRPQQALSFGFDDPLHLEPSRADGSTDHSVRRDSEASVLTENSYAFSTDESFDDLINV

[3] = target: AtfD:GFP (Aspergillus fumigatus) (UniProt Q4WLV8)
[4] = target: AtfD:GFP (Aspergillus fumigatus) (UniProt Q4WLV8); remark: listed apart in the source

Molecule | binding [1] | binding [2] | binding [3] | binding [4]
AtfC:3xHA (from UniProt Q4WR67) | binds | binds | binds | 
AtfB:3xHA (protein, UniProt Q4WVQ7 1-328) MLPEQSAFGRSAMPGSDAVNPGPSPFAPPPNSFSGDFLGLSLPDEEHLWGMSPLSSSMPSWNGKNEQMFSNPNLERDLKHSHVRNGQPTPPPYGDNKTHTVGDLYSLSQCQFSNGAQNFQTHNDRRSFCEQSAINSNGGSSKRRKVRDAKMTQAEYNEQQQEKAKREKFLERNRLAASKCRQKKKEHTQLLESRYREQSDKKEQLVSEIARLRSEILGLKNEVLKHAQCGDEPIKLHLAQMVKKITYNDTTAPDLTDVPDAASSSEGPMTPRPQQALSFGFDDPLHLEPSRADGSTDHSVRRDSEASVLTENSYAFSTDESFDDLINV |  |  |  | binds
AtfA:3xHA (protein, UniProt Q4WY05 1-555) MMSAAVASSVPANLPHSTNTRNSSPMDSKKNALDAGVRHFFPRYCDLYPAVGMTSHLASSMEGIFLIRFLPCQPRDATNPPLQHAQHKPDVDPQTSLAPPPRPAVTTATDTPDYFNSVHNPFSLEPNPFEQSFGGGSQSETPGKSLLPPVAALTSPALPGTSSTGGYNWSNSLRSGPLSPAMLAGPAGGNDYFDSIGRGFPTPNESSLRTGLTPGGGGSMFPAPSPNSQAILQQLQSGGATPSTIEFHRTALSAAKKNGLSGPTSNPTADSEGVHSSSMDIKSSQPASVDPFTHHDAADAANGLFMLAKGGQANQFVSNQSSVPPHTIQGNNQSRDADRRGSQNVNGPVASSREMSGDASDMQTEQAKPSAKGKGKKNTASKSGTTANNRRKADDTPAKGPNKKAKTSVSSGSAEPPSEAGDSEDEDDMKKKSQTDTKKMTDEEKRRNFLERNRVAALKCRQRKKQWLANLQAKVELFTTENDALTATVTQLREEIVNLKTLLLAHKDCPVSQAQGLGSLMMNGMSTGFDPHPYNIANNMGMQPGAPIPTQGMRR |  |  |  | binds

Like-named read-outs stand apart in the source and are kept apart here. Results are given in words; binding and its absence hold for the method and conditions named. In cells and extracts the contact can be indirect. A result given as binding can be weak or reduced; the word gives no strength. For some assays here: Tags and fused reporters may be left off the sequences shown.
